The list shows a part of the results. Single values are uncertain, as repeats are few or missing.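 Cells were imaged in 1,536-well plates, and nuclei stained with an antibody against cleaved PARP were counted against all DNA-stained nuclei to give the apoptosis fraction. Screening doses were chosen to leave most cells alive, and resting and induced cleaved-PARP levels differ strongly between cell lines.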

The experiment concerns MEL-HO. Nature of the experiment: cleaved PARP positive nuclei fraction relative to DMSO control; melanoma cells; higher = more apoptosis. The note with it: library dose: low library concentration; 72 h.
Regarding `Cn1c(=O)n(-c2ccc(C(C)(C)C#N)cc2)c2c3cc(-c4cnc5ccccc5c4)ccc3ncc21` + CN1CCN(c2ccc3nc(-c4c(N)c5c(F)cccc5[nH]c4=O)[nH]c3c2)CC1 [Dovitinib] (first compound 0.004 µM, partner dose 0.1 µM), the “cleaved PARP positive nuclei fraction” value turned out to be 159%.
Under `O=C(O)c1ccc2c(c1)nc(Nc1cccc(Cl)c1)c1ccncc12` + COc1ccc(Cl)c(Nc2nc3ccccc3nc2NS(=O)(=O)c2cccc(NC(=O)C(C)(C)N)c2)c1 [XL147] (first compound 0.4 µM, partner dose 0.8 µM) stands 147%.
The value for `CNC(=O)c1cc(Oc2ccc(NC(=O)Nc3ccc(Cl)c(C(F)(F)F)c3)cc2)ccn1` [sorafenib] + OCc1c[nH]c2ccccc12 [Indole-3-carbinol] (first compound 0.4 µM, partner dose 0.8 µM) was 32.5%; that for `CO[C@H]1C[C@@H]2CC[C@@H](C)[C@@](O)(O2)C(=O)C(=O)N2CCCC[C@H]2C(=O)O[C@H]([C@H](C)C[C@@H]2CC[C@@H](OCCO)[C@H](OC)C2)CC(=O)[C@H](C)/C=C(\C)[C@@H](O)[C@@H](OC)C(=O)[C@H](C)C[C@H](C)/C=C/C=C/C=C/1C` [everolimus] + O=C(O)c1ccc2c(c1)nc(Nc1cccc(Cl)c1)c1ccncc12 [CX4945] (first compound 0.02 µM, partner dose 0.4 µM) was 68%; that for `Cn1c(=O)n(-c2ccc(C(C)(C)C#N)cc2)c2c3cc(-c4cnc5ccccc5c4)ccc3ncc21` + O=C(O)c1ccc2c(c1)nc(Nc1cccc(Cl)c1)c1ccncc12 [CX4945] (first compound 0.004 µM, partner dose 0.4 µM) was 201%.
The value for `CNC(=O)c1cc(Oc2ccc(NC(=O)Nc3ccc(Cl)c(C(F)(F)F)c3)cc2)ccn1` [sorafenib] + Cn1c(Nc2ccc(C(F)(F)F)cc2)nc2cc(Oc3ccnc(-c4ncc(C(F)(F)F)[nH]4)c3)ccc21 [CHIR265] (first compound 0.4 µM, partner dose 0.08 µM) was 172%.
As for `Cc1cc(Nc2cc(N3CCN(C)CC3)nc(/C=C/c3ccccc3)n2)n[nH]1` + NC1(c2ccc(-c3nc4ccn5c(=O)[nH]nc5c4cc3-c3ccccc3)cc2)CCC1 [MK2206] (first compound 0.04 µM, partner dose 0.4 µM), the “cleaved PARP positive nuclei fraction” value was 95.3%.
The value for `CC(C)C[C@H](NC(=O)[C@H](Cc1ccccc1)NC(=O)c1cnccn1)B(O)O` [Bortezomib] + CS(=O)(=O)CCNCc1ccc(-c2ccc3ncnc(Nc4ccc(OCc5cccc(F)c5)c(Cl)c4)c3c2)o1 [lapatinib] (first compound 0.001 µM, partner dose 0.8 µM) was 109%; that for `CO[C@H]1C[C@@H]2CC[C@@H](C)[C@@](O)(O2)C(=O)C(=O)N2CCCC[C@H]2C(=O)O[C@H]([C@H](C)C[C@@H]2CC[C@@H](OCCO)[C@H](OC)C2)CC(=O)[C@H](C)/C=C(\C)[C@@H](O)[C@@H](OC)C(=O)[C@H](C)C[C@H](C)/C=C/C=C/C=C/1C` [everolimus] + Cn1nnc2c(C(N)=O)ncn2c1=O [temozolomide] (first compound 0.02 µM, partner dose 2 µM) was 264%; that for `O=C(O)[C@@H]1[O][Sb](=[O])([O][Sb]2(=[O])[O][C@H]([C@H](O)CO)[C@H](O)[C@H](C(=O)O)[O]2)[O][C@H]([C@H](O)CO)[C@@H]1O` (some centres not stated) [stibogluconate] + C#Cc1cccc(Nc2ncnc3cc(OCCOC)c(OCCOC)cc23)c1 [erlotinib] (first compound 2 µM, partner dose 0.8 µM) was 55.5%.
The value for `C=C(c1ccc(C(=O)O)cc1)c1cc2c(cc1C)C(C)(C)CCC2(C)C` [Bexarotene] + Nc1nc(F)nc2c1ncn2[C@@H]1O[C@H](CO)[C@@H](O)[C@@H]1O [fludarabine] (first compound 2 µM, partner dose 0.2 µM) was 189%; that for `CNC(=O)c1cc(Oc2ccc(NC(=O)Nc3ccc(Cl)c(C(F)(F)F)c3)cc2)ccn1` [sorafenib] + C=CCNC1=C2C[C@@H](C)C[C@H](OC)[C@H](O)[C@@H](C)/C=C(\C)[C@H](OC(N)=O)[C@@H](OC)/C=C\C=C(/C)C(=O)NC(=CC1=O)C2=O [Tanespimycin] (first compound 0.4 µM, partner dose 0.002 µM) was 123%; that for `Cn1c(=O)n(-c2ccc(C(C)(C)C#N)cc2)c2c3cc(-c4cnc5ccccc5c4)ccc3ncc21` + Nc1ncn([C@H]2C[C@H](O)[C@@H](CO)O2)c(=O)n1 [decitabine] (first compound 0.004 µM, partner dose 0.1 µM) was 53.9%.
Under `CC(C)C[C@H](NC(=O)[C@H](Cc1ccccc1)NC(=O)c1cnccn1)B(O)O` [Bortezomib] + C=C(c1ccc(C(=O)O)cc1)c1cc2c(cc1C)C(C)(C)CCC2(C)C [Bexarotene] (first compound 0.001 µM, partner dose 2 µM) stands 106%; under `CCCS(=O)(=O)Nc1ccc(F)c(C(=O)c2c[nH]c3ncc(Cl)cc23)c1F` + COCC[n+]1c2c(n(Cc3cnccn3)c1C)C(=O)c1ccccc1C2=O [YM155] (first compound 0.08 µM, partner dose 0.0004 µM), 87.6%.
Turning to `CN1CCN(c2ccc3nc(-c4c(N)c5c(F)cccc5[nH]c4=O)[nH]c3c2)CC1` [Dovitinib] + Cn1c(Nc2ccc(C(F)(F)F)cc2)nc2cc(Oc3ccnc(-c4ncc(C(F)(F)F)[nH]4)c3)ccc21 [CHIR265] (first compound 0.1 µM, partner dose 0.08 µM), the “cleaved PARP positive nuclei fraction” value stood at 157%.
`Cn1c(=O)n(-c2ccc(C(C)(C)C#N)cc2)c2c3cc(-c4cnc5ccccc5c4)ccc3ncc21` + Cn1nnc2c(C(N)=O)ncn2c1=O [temozolomide] (first compound 0.004 µM, partner dose 2 µM): the “cleaved PARP positive nuclei fraction” value worked out at 57.4%.
Under `CC(C)C[C@H](NC(=O)[C@H](Cc1ccccc1)NC(=O)c1cnccn1)B(O)O` [Bortezomib] + C[C@@H](Oc1cc(-c2cnn(C3CCNCC3)c2)cnc1N)c1c(Cl)ccc(F)c1Cl [Crizotinib] (first compound 0.001 µM, partner dose 0.2 µM) stands 184%; under `O=C(O)[C@@H]1[O][Sb](=[O])([O][Sb]2(=[O])[O][C@H]([C@H](O)CO)[C@H](O)[C@H](C(=O)O)[O]2)[O][C@H]([C@H](O)CO)[C@@H]1O` (some centres not stated) [stibogluconate] + OCc1c[nH]c2ccccc12 [Indole-3-carbinol] (first compound 2 µM, partner dose 0.8 µM), 44.8%; under `C=C(c1ccc(C(=O)O)cc1)c1cc2c(cc1C)C(C)(C)CCC2(C)C` [Bexarotene] + Cn1nnc2c(C(N)=O)ncn2c1=O [temozolomide] (first compound 2 µM, partner dose 2 µM), 56.4%.
Consider `Nc1ncn([C@H]2C[C@H](O)[C@@H](CO)O2)c(=O)n1` [decitabine] + C[C@]1(c2nc3c(C(N)=O)cccc3[nH]2)CCCN1 [Veliparib] (first compound 0.1 µM, partner dose 1.4 µM), for which the “cleaved PARP positive nuclei fraction” value stood at 92.6%.
Under `CN1CCN(c2ccc3nc(-c4c(N)c5c(F)cccc5[nH]c4=O)[nH]c3c2)CC1` [Dovitinib] + Nc1nc(F)nc2c1ncn2[C@@H]1O[C@H](CO)[C@@H](O)[C@@H]1O [fludarabine] (first compound 0.1 µM, partner dose 0.2 µM) stands 61.2%; under `CO[C@H]1C[C@@H]2CC[C@@H](C)[C@@](O)(O2)C(=O)C(=O)N2CCCC[C@H]2C(=O)O[C@H]([C@H](C)C[C@@H]2CC[C@@H](OCCO)[C@H](OC)C2)CC(=O)[C@H](C)/C=C(\C)[C@@H](O)[C@@H](OC)C(=O)[C@H](C)C[C@H](C)/C=C/C=C/C=C/1C` [everolimus] + Clc1ccc(Nc2nnc(Cc3ccncc3)c3ccccc23)cc1 [vatalanib] (first compound 0.02 µM, partner dose 2 µM), 61.6%; under `CO[C@H]1C[C@@H]2CC[C@@H](C)[C@@](O)(O2)C(=O)C(=O)N2CCCC[C@H]2C(=O)O[C@H]([C@H](C)C[C@@H]2CC[C@@H](OCCO)[C@H](OC)C2)CC(=O)[C@H](C)/C=C(\C)[C@@H](O)[C@@H](OC)C(=O)[C@H](C)C[C@H](C)/C=C/C=C/C=C/1C` [everolimus] + C#Cc1cccc(Nc2ncnc3cc(OCCOC)c(OCCOC)cc23)c1 [erlotinib] (first compound 0.02 µM, partner dose 0.8 µM), 97.4%.
In the case of `CS(=O)(=O)CCNCc1ccc(-c2ccc3ncnc(Nc4ccc(OCc5cccc(F)c5)c(Cl)c4)c3c2)o1` [lapatinib] + OCc1c[nH]c2ccccc12 [Indole-3-carbinol] (first compound 0.8 µM, partner dose 0.8 µM), the “cleaved PARP positive nuclei fraction” value was determined as 96%.
The value for `C[C@@H](Oc1cc(-c2cnn(C3CCNCC3)c2)cnc1N)c1c(Cl)ccc(F)c1Cl` [Crizotinib] + Nc1ccn([C@@H]2O[C@H](CO)[C@@H](O)C2(F)F)c(=O)n1 [gemcitabine] (first compound 0.2 µM, partner dose 0.0004 µM) was 56.2%; that for `O=C(O)[C@@H]1[O][Sb](=[O])([O][Sb]2(=[O])[O][C@H]([C@H](O)CO)[C@H](O)[C@H](C(=O)O)[O]2)[O][C@H]([C@H](O)CO)[C@@H]1O` (some centres not stated) [stibogluconate] + COc1ccc(Cl)c(Nc2nc3ccccc3nc2NS(=O)(=O)c2cccc(NC(=O)C(C)(C)N)c2)c1 [XL147] (first compound 2 µM, partner dose 0.8 µM) was 140%.

The values above are taken from the supplement of paper PMC4604168 (melanoma cell lines).
